{
  "source": "patent US8969515B2",
  "about": "“Pharmaceutical composition for treating hyperproliferative diseases” (OOO “MetaMax”, priority 2011, dated 2015)",
  "system": "HCT-116 cells xenograft",
  "assay": "Anti-tumor activity in vivo, local injection, HCT-116 xenograft",
  "parameters": "species or system mice",
  "details": "day 28, 0.1 mg to the tumor site, 11 injections; control 679",
  "source_text": "The tumor nodule of HCT-116 cells is characterized by a large in size and the presence of ulceration. In the control group, on day 28 of the experiment the average tumor volume reached 679 mm^3, 3 mice died during the experiment. In the test group, a lower rate of tumor growth was observed (FIG. 32), on day 28 of the experiment the average tumor volume was 225.4 mm^3, the number of dead animals in the experimental group was 2.",
  "note": "At least one peptide structure holds a part that was inferred or is arguable (an end, a ring closure or a residue).",
  "data": [
    {"compound": "CC[C@H](C)[C@H](NC(=O)[C@H](CCCCN)NC(=O)[C@@H](NC(=O)[C@H](CCC(N)=O)NC(=O)[C@H](CCCNC(=N)N)NC(=O)[C@H](CO)NC(=O)[C@H](CCCNC(=N)N)NC(=O)[C@H](C)NC(=O)CNC(=O)[C@H](C)NC(=O)[C@H](CCCNC(=N)N)NC(=O)[C@H](Cc1c[nH]cn1)NC(=O)[C@H](CC(C)C)NC(=O)[C@@H](NC(=O)[C@@H](NC(=O)[C@H](CC(C)C)NC(=O)[C@@H](NC(=O)[C@H](CC(=O)O)NC(=O)[C@H](CC(C)C)NC(=O)[C@H](Cc1ccccc1)NC(=O)CNC(=O)[C@H](CCC(=O)O)NC(=O)[C@H](CCCNC(=N)N)NC(=O)[C@H](C)NC(=O)[C@H](C)NC(=O)[C@@H](N)CC(=O)O)[C@@H](C)O)C(C)C)C(C)C)[C@@H](C)CC)C(=O)N[C@@H](Cc1c[nH]c2ccccc12)C(=O)N[C@@H](Cc1ccccc1)C(=O)N[C@@H](CCC(N)=O)C(=O)N[C@@H](CC(N)=O)C(=O)N[C@@H](CCCNC(=N)N)C(=O)N[C@@H](CCCNC(=N)N)C(=O)N[C@@H](CCSC)C(=O)N[C@@H](CCCCN)C(=O)N[C@@H](Cc1c[nH]c2ccccc12)C(=O)N[C@@H](CCCCN)C(=O)N[C@@H](CCCCN)C(=O)O", "note": "[pAntp_p16(2)]", "values": [
      {"measurement": "average tumor volume", "value": 225.4, "unit": "mm3"}
    ]}
  ]
}
